{
  "sequences": {"note": "Sequences of proteins named here, by UniProt entry; tags and fusion partners are left off.", "UniProt P28223, whole entry": "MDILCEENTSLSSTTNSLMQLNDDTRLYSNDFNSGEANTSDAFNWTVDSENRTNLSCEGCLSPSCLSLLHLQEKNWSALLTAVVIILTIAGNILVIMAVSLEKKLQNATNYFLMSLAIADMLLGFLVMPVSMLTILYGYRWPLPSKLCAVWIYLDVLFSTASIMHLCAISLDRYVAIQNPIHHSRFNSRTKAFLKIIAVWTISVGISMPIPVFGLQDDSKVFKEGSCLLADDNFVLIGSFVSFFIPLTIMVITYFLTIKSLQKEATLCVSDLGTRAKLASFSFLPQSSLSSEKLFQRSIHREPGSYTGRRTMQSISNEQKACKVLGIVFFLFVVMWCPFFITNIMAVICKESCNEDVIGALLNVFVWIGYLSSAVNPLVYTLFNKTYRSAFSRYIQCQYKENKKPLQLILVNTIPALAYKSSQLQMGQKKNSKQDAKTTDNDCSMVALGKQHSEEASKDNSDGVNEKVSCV"},
  "source": "BindingDB's records for doi:10.1016/s0024-3205(00)00911-5",
  "about": "(Mayo Foundation, 2000)",
  "molecular_target": "5-hydroxytryptamine receptor 2A (Homo sapiens, UniProt P28223)",
  "data": [
    {"compound": "COc1cc(C(C)=O)ccc1OCCCN1CCC(c2noc3cc(F)ccc23)CC1", "values": [
      {"measurement": "Ki", "result": 0.2, "unit": "nM"}
    ]}
  ]
}
